{"source": "patent US11446282B2", "about": "“Methods of treating mixed dyslipidemia and hypertriglycertdemia” (Kowa Company, Ltd., priority 2017, dated 2022)", "origin": "cited, not measured here", "note": "Some of these results come from one statement about several compounds together. At least one compound was matched to its structure with a doubt left.", "data": [{"settings": "High intensity: Atorvastatin 40 to 80 mg; Rosuvastatin 20 (40) mg; cited from earlier work", "values": [{"smiles": "CC(C)c1nc(N(C)S(C)(=O)=O)nc(-c2ccc(F)cc2)c1/C=C/[C@@H](O)C[C@@H](O)CC(=O)O", "note": "[Rosuvastatin]", "Daily dosage lowers LDL-C on average": "by approximately ≥ 50% on"}, {"smiles": "CC(C)c1c(C(=O)Nc2ccccc2)c(-c2ccccc2)c(-c2ccc(F)cc2)n1CC[C@@H](O)C[C@@H](O)CC(=O)O", "note": "[Atorvastatin]", "Daily dosage lowers LDL-C on average": "by approximately ≥ 50% on"}]}, {"settings": "Low intensity: Simvastatin 10 mg; Pravastatin 10 to 20 mg; Lovastatin 20 mg; Fluvastatin 20 to 40 mg; Pitavastatin 1 mg; cited from earlier work", "values": [{"smiles": "O=C(O)C[C@H](O)C[C@H](O)/C=C/c1c(C2CC2)nc2ccccc2c1-c1ccc(F)cc1", "note": "[Pitavastatin]", "Daily dosage lowers LDL-C on average": "by approximately < 30% on"}, {"smiles": "CC[C@H](C)C(=O)O[C@H]1C[C@@H](C)C=C2C=C[C@H](C)[C@H](CC[C@@H]3C[C@@H](O)CC(=O)O3)[C@H]21", "note": "[Lovastatin]", "Daily dosage lowers LDL-C on average": "by approximately < 30% on"}, {"smiles": "CC[C@H](C)C(=O)O[C@H]1C[C@H](O)C=C2C=C[C@H](C)[C@H](CC[C@@H](O)C[C@@H](O)CC(=O)O)[C@H]21", "note": "[Pravastatin]", "Daily dosage lowers LDL-C on average": "by approximately < 30% on"}, {"smiles": "CC(C)n1c(/C=C/C(O)CC(O)CC(=O)O)c(-c2ccc(F)cc2)c2ccccc21", "note": "(stereo not drawn) [Fluvastatin]", "Daily dosage lowers LDL-C on average": "by approximately < 30% on"}]}]}
